# Results reported in paper PMC12431657, “Discovery and mechanistic insights of dibenzoylmethane as a broad spectrum inhibitor of coronavirus” (PLOS Pathogens, 2025).
# Read-outs that look alike come from different tables or passages of the source. In all, about 3,300 compounds went through this assay and about 60 (2%) showed an effect of 50% or more. The list shows a part of the results.
# Tested on: HCoV-OC43
# Design: species or system RD; HTS, protection from HCoV-OC43 induced cell death, luminescent cell viability (CellCounting-Lite 2.0), inhibition rate
# Details: 24 h post infection, 1 h compound pre-incubation, 10 µM, inhibitor
Compound,OC43 Inhibition rate,"OC43 Inhibition rate (OC43 Inhibition rate, 24 h)"
CC(=O)CO [Hydroxyacetone],-1%,
CN[C@@H](C)[C@H]1[C@H](O)C[C@@]2(C)[C@@H]3CC[C@H]4C(C)(C)[C@@H](NC)CC[C@@]45C[C@@]35CC[C@]12C [Cyclovirobuxine D],109.3%,
O=C(O)c1cc(=O)c2cccc(O)c2[nH]1 [Xanthurenic acid],-0.5%,
C[C@]12C=CC(=O)C=C1CC[C@@H]1[C@@H]2[C@@H](O)C[C@@]2(C)[C@H]1CC[C@]2(O)C(=O)CO [Prednisolone],-0.1%,
C/C=C(/C)C(=O)O[C@H]1[C@@H](OC(=O)CC(C)C)c2c(ccc3ccc(=O)oc23)OC1(C)C [Praeruptorin E],0%,
"COc1ccc(/C=C/C(=O)O)cc1OC [(E)-3,4-Dimethoxycinnamic acid]",,-0.7%
COc1ccc([C@H]2OC[C@H]3[C@@H]2CO[C@@H]3c2ccc(OC)c(OC)c2)cc1OC [Eudesmin],,2.6%
O=C1CC[C@H](C(=O)O)N1 [(R)-5-Oxopyrrolidine-2-carboxylic acid],-0.2%,
O=Cc1ccc(O[C@@H]2O[C@H](CO)[C@@H](O)[C@@H](O)[C@H]2O)cc1 [Helicid],0.1%,
O=c1c(O[C@@H]2OC[C@@H](O)[C@H](O)[C@H]2O)c(-c2ccc(O)c(O)c2)oc2cc(O)cc(O)c12 [Reynoutrin],1.1%,
C[C@@H]1O[C@@H](O[C@H]2[C@H](O[C@H]3CC[C@@]4(C)[C@@H](CC[C@]5(C)[C@@H]4CC=C4[C@@H]6CC(C)(C)CC[C@]6(C(=O)O)CC[C@]45C)[C@]3(C)CO)OC[C@H](O)[C@@H]2O)[C@H](O)[C@H](O[C@@H]2O[C@H](CO)[C@@H](O[C@@H]3O[C@H](CO)[C@@H](O)[C@H](O)[C@H]3O)[C@H](O)[C@H]2O)[C@H]1O [Macranthoside B],-7.6%,
O=C(O)c1cccc(O)c1 [3-Hydroxybenzoic acid],2%,
COC(=O)C1=COC(O[C@@H]2O[C@H](CO)[C@@H](O)[C@H](O)[C@H]2O)/C(=C/C(=O)O)C1CC(=O)OCCc1ccc(O)cc1 (some centres unmarked) [Ligustrosidic acid],0.1%,
C[N+](C)(C)CCOP(=O)(O)OP(=O)([O-])OC[C@H]1O[C@@H](n2ccc(N)nc2=O)[C@H](O)[C@@H]1O [Citicoline (sodium)],,3.4%
CN1c2c(nc(N)[nH]c2=O)NCC1CNc1ccc(C(=O)N[C@@H](CCC(=O)O)C(=O)O)cc1 (some centres unmarked) [5-Methyltetrahydrofolic acid],1.1%,
OC[C@@H](O)[C@@H](O)CO [meso-Erythritol],1%,
CC[C@H]1OC(=O)C[C@@H](O)[C@H](C)[C@@H](O[C@@H]2O[C@H](C)[C@@H](O[C@H]3C[C@@](C)(O)[C@@H](O)[C@H](C)O3)[C@H](N(C)C)[C@H]2O)[C@@H](CC=O)C[C@@H](C)C(=O)/C=C/C(C)=C/[C@@H]1CO[C@@H]1O[C@H](C)[C@@H](O)[C@@H](OC)[C@H]1OC [Tylosin (tartrate)],,45.9%
NC(CO)C(=O)O (racemic) [DL-Serine],-0.6%,
CCCCCCCCCCCCCCCCCC(=O)O [Stearic acid],-0.8%,

# Taken from the results shown, 2 compounds:
Compound,OC43 Inhibition rate,"OC43 Inhibition rate (OC43 Inhibition rate, 24 h)"
OC[C@@H](O)[C@@H](O)CO [meso-Erythritol],1%,
CC[C@H]1OC(=O)C[C@@H](O)[C@H](C)[C@@H](O[C@@H]2O[C@H](C)[C@@H](O[C@H]3C[C@@](C)(O)[C@@H](O)[C@H](C)O3)[C@H](N(C)C)[C@H]2O)[C@@H](CC=O)C[C@@H](C)C(=O)/C=C/C(C)=C/[C@@H]1CO[C@@H]1O[C@H](C)[C@@H](O)[C@@H](OC)[C@H]1OC [Tylosin (tartrate)],,45.9%

# The list continues:

Compound,OC43 Inhibition rate,"OC43 Inhibition rate (OC43 Inhibition rate, 24 h)"
CC(=O)OC/C=C(C)/C=C/C=C(C)/C=C/C1=C(C)CCCC1(C)C [Retinyl acetate],0.3%,
NCCCC[C@H](N)C(=O)O [L-Lysine],,-0.1%
O=c1c(O)c(-c2cc(O)c(O)c(O)c2)oc2cc(O)ccc12 [Robinetin],0.2%,
COc1ccc(-c2oc3c(CC=C(C)C)c(O)cc(O)c3c(=O)c2O[C@@H]2O[C@@H](C)[C@H](O)[C@@H](O)[C@H]2O)cc1 [Baohuoside I],70.2%,
OCC1(O)COc2cc(O)ccc2-c2cc(O)c(O)cc2C1 (centres unmarked) [Protosappanin B],0.6%,
Nc1[nH]cnc2ncnc1-2 [Adenine (hemisulfate)],,0.6%
CC(=O)O[C@@H](C[C@@H](C)C1=C2C[C@H](O)[C@H]3[C@@]4(C)CCC(=O)C(C)(C)[C@@H]4CC[C@]3(C)[C@@]2(C)CC1)[C@H]1OC1(C)C [Alisol B 23-acetate],0.5%,
NCc1ccccc1O [o-Hydroxybenzylamine],0.7%,
O=C(O)Cc1ccccc1O [2-Hydroxyphenylacetic acid],1.3%,
"COc1cc(OC)c2c(=O)c(OC)c(-c3ccc(OC)c(OC)c3)oc2c1 [3,5,7,3′,4′-Pentamethoxyflavone]",2.1%,
C=C[C@]1(C)C=C2CC[C@H]3[C@@](C)(CCC[C@@]3(C)C(=O)O)[C@@H]2CC1 [Continentalic acid],-1.2%,
CC(C)=C1C/C=C(\C)CC/C=C(\C)CC1=O [Germacrone],1.7%,
O=c1c(O[C@@H]2O[C@H](CO)[C@H](O)[C@H](O)[C@H]2O[C@@H]2O[C@H](CO)[C@@H](O)[C@H](O)[C@H]2O)c(-c2ccc(O)cc2)oc2cc(O)cc(O)c12 [Panasenoside],0.4%,
COc1ccc(/C=C\c2cc(OC)c(OC)c(OC)c2)cc1OP(=O)(O)O [Fosbretabulin (disodium)],-0.2%,
CCCCCCC/C=C/C(=O)CCc1ccc(O)c(OC)c1 [[8]-Shogaol],0.1%,
CC1=C(C=O)C(C)(C)CC=C1 [Safranal],1%,
C[C@@H]1O[C@@H](OC[C@H]2O[C@@H](Oc3c(-c4ccc(O)cc4)oc4cc(O)cc(O)c4c3=O)[C@H](O)[C@@H](O)[C@H]2O)[C@H](O)[C@H](O)[C@H]1O [Biorobin],0.5%,
C[C@@H]1O[C@@H](O[C@@H]2[C@@H](O)[C@H](OCCc3ccc(O)c(O)c3)O[C@H](CO)[C@H]2OC(=O)/C=C/c2ccc(O)c(O)c2)[C@H](O)[C@H](O)[C@H]1O [Verbascoside],0.3%,
CC(C)(CO)[C@@H](O)C(=O)NCCCO [D-Panthenol],1.4%,
